This is one part of the list.
How the values were obtained:
Assay in all cases: log2 fold change, soluble protein after heating vs DMSO (PISA); higher = thermal stabilisation; K562 cells, 10 uM, 30 min; active = over 0.2 and 3.5 SD of the protein, either way, in both replicates (recomputed)
[1] = compound: CS(=O)(=O)c1ccc(-c2cnc(N)c(C(=O)Nc3ccccc3)n2)cc1
How it was run: (§1)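 For each measurement, 10 μM compound was applied for 30 min to K562 cells at 2×10^6 cells/mL. Aliquots were heated for 3 min across 48°C-58°C, pooled, and extracted in PBS with 0.5% NP-40 at 4°C; the supernatant after 21,000xg for 90 min was soluble protein. This was quantified by TMTpro 16plex LC-MS/MS with channel sums equalised, and thermal stability was reported relative to control samples from duplicates, on a log2 fold-change scale.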

By UniProt entry, the sequences of proteins in these tests, tags left out. Where a name states a change or a piece, a line headed by the entry shows the natural chain unless it says otherwise.
UniProt Q8WW33: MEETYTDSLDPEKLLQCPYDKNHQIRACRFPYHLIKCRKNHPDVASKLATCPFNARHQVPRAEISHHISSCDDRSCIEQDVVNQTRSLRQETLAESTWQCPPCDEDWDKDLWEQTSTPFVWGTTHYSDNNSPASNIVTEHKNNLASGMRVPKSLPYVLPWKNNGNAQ
UniProt P78347: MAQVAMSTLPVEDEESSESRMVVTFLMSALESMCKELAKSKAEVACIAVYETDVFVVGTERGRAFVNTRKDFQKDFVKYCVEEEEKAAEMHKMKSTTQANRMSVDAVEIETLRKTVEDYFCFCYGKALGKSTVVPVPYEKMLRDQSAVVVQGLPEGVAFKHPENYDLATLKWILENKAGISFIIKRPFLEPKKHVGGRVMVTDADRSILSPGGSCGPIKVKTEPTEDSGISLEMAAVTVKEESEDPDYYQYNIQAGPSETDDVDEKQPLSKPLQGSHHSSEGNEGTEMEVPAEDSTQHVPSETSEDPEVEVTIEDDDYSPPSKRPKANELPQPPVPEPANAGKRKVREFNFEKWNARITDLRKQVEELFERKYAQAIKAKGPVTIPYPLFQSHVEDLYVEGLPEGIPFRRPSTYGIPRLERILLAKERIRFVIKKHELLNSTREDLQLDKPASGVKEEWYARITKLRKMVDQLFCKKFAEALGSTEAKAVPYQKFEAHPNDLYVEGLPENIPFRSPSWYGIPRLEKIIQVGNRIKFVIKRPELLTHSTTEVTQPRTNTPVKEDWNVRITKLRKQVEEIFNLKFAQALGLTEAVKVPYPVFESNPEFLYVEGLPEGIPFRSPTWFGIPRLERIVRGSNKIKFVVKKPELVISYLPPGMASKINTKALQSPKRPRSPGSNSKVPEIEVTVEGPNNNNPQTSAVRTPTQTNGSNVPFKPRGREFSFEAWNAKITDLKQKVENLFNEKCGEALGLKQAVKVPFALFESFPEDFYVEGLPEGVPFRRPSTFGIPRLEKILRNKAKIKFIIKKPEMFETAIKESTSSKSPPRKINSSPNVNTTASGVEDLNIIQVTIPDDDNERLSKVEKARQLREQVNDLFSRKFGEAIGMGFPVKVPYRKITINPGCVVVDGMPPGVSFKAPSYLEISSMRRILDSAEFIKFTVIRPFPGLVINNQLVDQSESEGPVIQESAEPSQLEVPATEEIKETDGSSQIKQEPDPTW
UniProt Q9P035: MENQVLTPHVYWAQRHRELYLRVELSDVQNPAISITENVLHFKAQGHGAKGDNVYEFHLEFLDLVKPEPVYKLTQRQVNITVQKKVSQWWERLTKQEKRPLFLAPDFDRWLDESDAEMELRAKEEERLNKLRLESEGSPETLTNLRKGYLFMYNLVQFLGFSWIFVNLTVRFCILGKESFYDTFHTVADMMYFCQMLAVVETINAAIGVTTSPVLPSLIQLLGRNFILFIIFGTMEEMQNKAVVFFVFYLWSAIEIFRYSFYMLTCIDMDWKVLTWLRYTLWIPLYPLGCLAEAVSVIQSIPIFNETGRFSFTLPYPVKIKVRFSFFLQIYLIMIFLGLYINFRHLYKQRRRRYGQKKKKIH
UniProt Q969Y2: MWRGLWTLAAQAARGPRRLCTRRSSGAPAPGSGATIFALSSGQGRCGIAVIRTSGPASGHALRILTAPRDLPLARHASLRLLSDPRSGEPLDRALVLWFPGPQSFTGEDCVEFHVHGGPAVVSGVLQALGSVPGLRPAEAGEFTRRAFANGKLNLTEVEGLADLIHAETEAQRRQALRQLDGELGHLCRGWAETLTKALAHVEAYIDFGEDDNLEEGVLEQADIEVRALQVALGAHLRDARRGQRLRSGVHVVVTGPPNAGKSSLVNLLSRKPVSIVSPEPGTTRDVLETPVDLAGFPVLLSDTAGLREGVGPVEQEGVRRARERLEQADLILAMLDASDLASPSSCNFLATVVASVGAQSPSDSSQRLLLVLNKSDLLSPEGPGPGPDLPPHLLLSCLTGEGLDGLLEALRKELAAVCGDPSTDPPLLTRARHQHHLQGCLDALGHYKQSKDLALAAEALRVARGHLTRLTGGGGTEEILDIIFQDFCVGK
UniProt Q8WUI4: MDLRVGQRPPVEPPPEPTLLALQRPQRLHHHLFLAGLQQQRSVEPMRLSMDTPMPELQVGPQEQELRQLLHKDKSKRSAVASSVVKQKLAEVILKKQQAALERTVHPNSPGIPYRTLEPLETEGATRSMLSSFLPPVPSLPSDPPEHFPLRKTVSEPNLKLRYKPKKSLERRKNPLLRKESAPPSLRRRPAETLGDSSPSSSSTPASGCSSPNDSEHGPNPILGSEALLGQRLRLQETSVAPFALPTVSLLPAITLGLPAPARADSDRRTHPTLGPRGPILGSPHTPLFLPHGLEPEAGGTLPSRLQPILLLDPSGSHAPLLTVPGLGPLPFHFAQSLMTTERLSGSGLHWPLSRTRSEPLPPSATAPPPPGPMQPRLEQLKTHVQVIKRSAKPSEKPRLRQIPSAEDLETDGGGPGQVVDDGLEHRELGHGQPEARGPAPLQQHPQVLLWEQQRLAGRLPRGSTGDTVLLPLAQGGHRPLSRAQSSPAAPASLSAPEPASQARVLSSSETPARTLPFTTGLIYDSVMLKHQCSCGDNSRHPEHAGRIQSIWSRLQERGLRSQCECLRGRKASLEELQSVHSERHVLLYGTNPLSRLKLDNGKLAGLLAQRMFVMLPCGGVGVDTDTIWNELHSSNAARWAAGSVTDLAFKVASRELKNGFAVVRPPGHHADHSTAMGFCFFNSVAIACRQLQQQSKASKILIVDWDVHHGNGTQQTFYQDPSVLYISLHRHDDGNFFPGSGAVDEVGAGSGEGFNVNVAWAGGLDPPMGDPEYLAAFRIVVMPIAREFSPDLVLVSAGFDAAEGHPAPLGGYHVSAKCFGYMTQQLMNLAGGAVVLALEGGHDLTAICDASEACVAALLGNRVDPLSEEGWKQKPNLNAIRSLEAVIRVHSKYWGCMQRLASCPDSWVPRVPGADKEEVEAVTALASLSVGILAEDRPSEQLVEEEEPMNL
UniProt P13807: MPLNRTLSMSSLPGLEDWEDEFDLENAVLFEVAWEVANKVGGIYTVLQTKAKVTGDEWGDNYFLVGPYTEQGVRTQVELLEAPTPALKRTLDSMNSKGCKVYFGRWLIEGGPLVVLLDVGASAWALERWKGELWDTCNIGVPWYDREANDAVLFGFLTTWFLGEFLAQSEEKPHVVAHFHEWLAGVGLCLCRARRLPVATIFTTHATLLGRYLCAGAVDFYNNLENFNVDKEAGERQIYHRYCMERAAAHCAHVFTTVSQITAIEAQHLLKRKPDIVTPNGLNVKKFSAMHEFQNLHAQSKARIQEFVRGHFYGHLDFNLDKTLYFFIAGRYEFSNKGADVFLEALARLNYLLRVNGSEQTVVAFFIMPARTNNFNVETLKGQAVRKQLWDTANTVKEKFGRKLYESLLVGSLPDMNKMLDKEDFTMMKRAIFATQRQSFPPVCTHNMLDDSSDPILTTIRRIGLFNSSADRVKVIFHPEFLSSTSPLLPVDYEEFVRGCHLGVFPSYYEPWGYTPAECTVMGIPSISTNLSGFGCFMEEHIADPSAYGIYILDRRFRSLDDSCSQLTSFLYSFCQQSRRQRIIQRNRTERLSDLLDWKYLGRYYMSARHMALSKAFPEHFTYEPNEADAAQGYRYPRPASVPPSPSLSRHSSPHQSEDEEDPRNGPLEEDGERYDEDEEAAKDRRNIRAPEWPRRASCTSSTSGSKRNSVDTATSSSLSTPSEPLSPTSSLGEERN
UniProt Q13888: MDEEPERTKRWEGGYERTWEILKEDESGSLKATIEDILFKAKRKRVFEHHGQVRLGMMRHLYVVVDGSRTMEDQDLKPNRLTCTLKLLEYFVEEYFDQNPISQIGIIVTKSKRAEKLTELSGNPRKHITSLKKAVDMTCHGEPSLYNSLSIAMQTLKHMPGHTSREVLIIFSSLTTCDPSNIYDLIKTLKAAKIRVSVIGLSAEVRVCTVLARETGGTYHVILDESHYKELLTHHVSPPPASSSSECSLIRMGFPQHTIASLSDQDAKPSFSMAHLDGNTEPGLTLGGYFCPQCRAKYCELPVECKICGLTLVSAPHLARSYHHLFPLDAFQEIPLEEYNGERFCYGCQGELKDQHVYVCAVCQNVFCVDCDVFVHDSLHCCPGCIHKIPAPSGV
UniProt P28161: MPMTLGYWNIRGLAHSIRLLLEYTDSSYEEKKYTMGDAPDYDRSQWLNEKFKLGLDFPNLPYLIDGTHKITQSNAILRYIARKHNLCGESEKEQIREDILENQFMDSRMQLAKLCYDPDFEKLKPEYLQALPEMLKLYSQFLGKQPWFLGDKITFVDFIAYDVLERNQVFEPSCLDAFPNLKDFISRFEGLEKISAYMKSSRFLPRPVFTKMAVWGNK
UniProt O43824: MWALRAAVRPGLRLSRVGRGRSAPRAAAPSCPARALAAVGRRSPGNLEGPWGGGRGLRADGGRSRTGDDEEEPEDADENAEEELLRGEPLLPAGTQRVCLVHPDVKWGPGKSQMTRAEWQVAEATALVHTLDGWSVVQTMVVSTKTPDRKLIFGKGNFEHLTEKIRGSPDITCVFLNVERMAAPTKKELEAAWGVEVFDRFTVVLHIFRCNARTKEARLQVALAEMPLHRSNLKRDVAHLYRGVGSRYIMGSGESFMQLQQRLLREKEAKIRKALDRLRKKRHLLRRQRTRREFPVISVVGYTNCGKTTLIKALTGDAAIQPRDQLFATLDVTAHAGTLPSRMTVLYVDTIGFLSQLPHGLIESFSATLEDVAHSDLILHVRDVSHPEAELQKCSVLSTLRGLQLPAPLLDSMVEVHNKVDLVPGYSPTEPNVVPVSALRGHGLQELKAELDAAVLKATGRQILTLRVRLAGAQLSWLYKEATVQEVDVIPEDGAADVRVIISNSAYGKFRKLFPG
UniProt P69892: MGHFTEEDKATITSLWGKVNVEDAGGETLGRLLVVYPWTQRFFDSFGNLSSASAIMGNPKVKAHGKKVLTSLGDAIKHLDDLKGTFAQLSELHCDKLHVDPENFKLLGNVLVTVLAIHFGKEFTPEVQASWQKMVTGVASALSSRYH
UniProt Q8N4P3, whole entry, looked up: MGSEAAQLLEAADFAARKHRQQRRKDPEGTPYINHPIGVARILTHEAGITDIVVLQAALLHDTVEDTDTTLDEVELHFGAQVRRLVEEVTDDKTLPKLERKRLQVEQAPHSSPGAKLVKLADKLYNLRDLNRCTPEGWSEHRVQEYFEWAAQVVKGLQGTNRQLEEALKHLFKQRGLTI
UniProt Q9BX10: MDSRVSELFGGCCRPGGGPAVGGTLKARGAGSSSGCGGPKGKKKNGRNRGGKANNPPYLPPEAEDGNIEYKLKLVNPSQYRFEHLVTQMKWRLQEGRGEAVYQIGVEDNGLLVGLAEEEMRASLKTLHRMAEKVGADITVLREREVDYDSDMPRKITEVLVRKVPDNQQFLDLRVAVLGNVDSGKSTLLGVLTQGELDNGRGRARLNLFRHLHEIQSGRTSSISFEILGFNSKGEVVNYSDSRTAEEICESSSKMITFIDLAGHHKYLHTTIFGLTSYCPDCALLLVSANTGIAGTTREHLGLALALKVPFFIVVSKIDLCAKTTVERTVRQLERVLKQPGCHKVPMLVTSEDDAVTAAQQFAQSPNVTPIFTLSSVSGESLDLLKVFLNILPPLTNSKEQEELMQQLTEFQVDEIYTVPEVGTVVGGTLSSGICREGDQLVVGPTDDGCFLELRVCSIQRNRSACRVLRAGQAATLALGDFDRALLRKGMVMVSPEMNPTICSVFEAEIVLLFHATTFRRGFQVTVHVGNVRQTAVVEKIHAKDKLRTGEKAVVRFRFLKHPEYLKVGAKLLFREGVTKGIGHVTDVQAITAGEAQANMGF
UniProt O15379: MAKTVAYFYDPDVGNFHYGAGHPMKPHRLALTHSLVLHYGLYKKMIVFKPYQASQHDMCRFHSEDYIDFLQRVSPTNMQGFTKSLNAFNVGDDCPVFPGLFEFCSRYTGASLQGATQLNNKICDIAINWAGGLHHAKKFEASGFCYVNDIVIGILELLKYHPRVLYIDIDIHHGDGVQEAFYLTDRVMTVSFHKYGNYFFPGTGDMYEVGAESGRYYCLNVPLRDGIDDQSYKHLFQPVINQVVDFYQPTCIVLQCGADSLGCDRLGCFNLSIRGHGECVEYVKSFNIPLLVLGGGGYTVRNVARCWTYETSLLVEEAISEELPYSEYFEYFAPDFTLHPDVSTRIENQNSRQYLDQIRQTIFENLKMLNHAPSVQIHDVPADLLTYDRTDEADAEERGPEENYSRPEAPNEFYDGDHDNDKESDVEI
UniProt Q92664: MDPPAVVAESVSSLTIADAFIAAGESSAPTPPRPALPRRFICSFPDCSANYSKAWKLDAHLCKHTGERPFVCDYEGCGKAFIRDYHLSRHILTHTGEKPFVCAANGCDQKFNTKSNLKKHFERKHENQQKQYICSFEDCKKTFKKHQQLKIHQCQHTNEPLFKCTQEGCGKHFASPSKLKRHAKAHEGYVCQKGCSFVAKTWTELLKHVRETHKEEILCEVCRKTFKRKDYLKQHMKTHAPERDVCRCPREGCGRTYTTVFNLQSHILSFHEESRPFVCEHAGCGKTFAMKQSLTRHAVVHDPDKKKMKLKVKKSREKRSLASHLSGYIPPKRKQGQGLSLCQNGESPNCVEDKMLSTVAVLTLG

crizotinib = compound: C[C@@H](Oc1cc(-c2cnn(C3CCNCC3)c2)cnc1N)c1c(Cl)ccc(F)c1Cl [crizotinib]
How it was run: as §1

[2] = compound: C[C@@H]1COCCN1C2=NC(=NC(=C2)C3(CC3)S(=O)(=O)C)C4=C5C=CNC5=CC=C4
How it was run: as §1

[3] = compound: C[C@H](C1=CC=C(C=C1)C(=O)NC2=C3C=CNC3=NC=C2)N
How it was run: as §1

duvelisib = compound: C[C@H](Nc1ncnc2nc[nH]c12)c1cc2cccc(Cl)c2c(=O)n1-c1ccccc1 [duvelisib]
How it was run: as §1

gandotinib = compound: Cc1cc(Nc2cc(CN3CCOCC3)c3nc(C)c(Cc4ccc(Cl)cc4F)n3n2)n[nH]1 [gandotinib]
How it was run: as §1

tozasertib = compound: Cc1cc(Nc2cc(N3CCN(C)CC3)nc(Sc3ccc(NC(=O)C4CC4)cc3)n2)n[nH]1 [tozasertib]
How it was run: as §1

[4] = compound: Cc1cc(SCc2sc(-c3ccc(C(F)(F)F)cc3)nc2C)ccc1OCC(=O)O
How it was run: as §1

doramapimod = compound: Cc1ccc(-n2nc(C(C)(C)C)cc2NC(=O)Nc2ccc(OCCN3CCOCC3)c3ccccc23)cc1 [doramapimod]
How it was run: as §1

ispinesib = compound: Cc1ccc(C(=O)N(CCCN)[C@@H](c2nc3cc(Cl)ccc3c(=O)n2Cc2ccccc2)C(C)C)cc1 [ispinesib]
How it was run: as §1

Measured: log2 fold change

GTSF1 (UniProt Q8WW33)
inactive: [1] 0.013 | crizotinib 0.052 | [2] 0.121 | [3] -0.097 | duvelisib 0.015 | gandotinib -0.011 | tozasertib 0 | [4] -0.011 | doramapimod -0.017 | ispinesib -0.091

GTF2I (UniProt P78347)
inactive: [1] -0.038 | crizotinib -0.009 | [2] -0.081 | [3] 0.28 | duvelisib 0.066 | gandotinib 0.04 | tozasertib 0.203 | [4] 0.005 | doramapimod 0.18 | ispinesib -0.393

HBD (UniProt P02042)
inactive: [1] -0.043 | crizotinib 0.153 | [2] 0.12 | [3] 0.007 | duvelisib 0.117 | gandotinib 0.327 | tozasertib 0.158 | [4] -0.023 | doramapimod -0.095 | ispinesib 0.249

HACD3 (UniProt Q9P035)
inactive: [1] 0.017 | crizotinib 0.046 | [2] -0.033 | [3] -0.055 | duvelisib 0.035 | gandotinib -0.101 | tozasertib 0.003 | [4] 0.007 | doramapimod 0.051 | ispinesib -0.047

GTPBP3 isoform 2 (UniProt Q969Y2)
inactive: [1] 0.018 | crizotinib 0.077 | [2] 0.058 | [3] -0.03 | duvelisib 0.036 | gandotinib -0.018 | tozasertib 0.005 | [4] -0.045 | doramapimod -0.031 | ispinesib 0.019

GSTK1 (UniProt Q9Y2Q3)
inactive: [1] 0.02 | crizotinib 0.116 | [2] 0.151 | [3] -0.02 | duvelisib 0.06 | gandotinib -0.033 | tozasertib -0.01 | [4] 0.036 | doramapimod 0.031 | ispinesib 0.177

HERC4 (UniProt Q5GLZ8)
inactive: [1] 0.033 | crizotinib -0.049 | [2] 0.086 | [3] -0.008 | duvelisib 0 | gandotinib -0.024 | tozasertib -0.008 | [4] 0.006 | doramapimod 0.017 | ispinesib 0.008

HEMGN (UniProt Q9BXL5)
inactive: [1] -0.022 | crizotinib 0.053 | [2] -0.021 | [3] 0.028 | duvelisib 0.027 | gandotinib 0.063 | tozasertib -0.019 | [4] 0.016 | doramapimod -0.003 | ispinesib -0.011

HDAC7 isoform 5 (UniProt Q8WUI4)
inactive: [1] -0.027 | crizotinib -0.013 | [2] 0.016 | gandotinib 0.011 | [4] 0.028 | doramapimod -0.018 | ispinesib 0.185
active: [3] -0.281

GYS1 (UniProt P13807)
inactive: [1] 0.017 | crizotinib -0.097 | [2] -0.187 | [3] 0.311 | gandotinib -0.015 | [4] 0.184 | doramapimod 0.271 | ispinesib -0.231

HBA1 (UniProt P69905)
inactive: [1] 0.009 | crizotinib 0.097 | [2] 0.213 | [3] -0.058 | gandotinib 0.025 | [4] 0.004 | doramapimod 0 | ispinesib 0.24

HERC1 (UniProt Q15751)
inactive: [1] 0.018 | crizotinib -0.064 | [2] -0.009 | [3] 0.022 | duvelisib -0.015 | gandotinib 0.033 | tozasertib 0.042 | [4] 0.049 | doramapimod 0.008 | ispinesib 0.059

GTF3C1 (UniProt Q12789)
inactive: [1] -0.159 | crizotinib -0.234 | [2] 0.04 | [3] 0.303 | duvelisib 0.17 | gandotinib 0.1 | tozasertib 0.018 | [4] 0.01 | doramapimod 0.173 | ispinesib -0.352

HAUS6 (UniProt Q7Z4H7)
inactive: [1] -0.018 | crizotinib -0.104 | [2] -0.116 | [3] 0.309 | duvelisib -0.074 | tozasertib 0.135 | [4] 0.104 | doramapimod 0.198 | ispinesib -0.273

GTF2A1 (UniProt P52655)
inactive: [1] 0.061 | crizotinib 0.074 | [2] 0.061 | [3] -0.065 | gandotinib 0.07 | [4] -0.066 | doramapimod -0.107 | ispinesib 0.24

GTF2H2 (UniProt Q13888)
inactive: [1] 0.009 | crizotinib -0.055 | [2] 0.005 | [3] -0.009 | duvelisib -0.024 | gandotinib -0.078 | tozasertib 0.101 | [4] -0.013 | doramapimod -0.028 | ispinesib -0.021

GSTM2 (UniProt P28161)
inactive: [1] 0.087 | crizotinib -0.075 | [2] 0.013 | [3] -0.086 | gandotinib 0.125 | tozasertib -0.139 | doramapimod -0.076 | ispinesib -0.011

HECTD3 (UniProt Q5T447)
inactive: [1] 0.101 | crizotinib -0.121 | [2] -0.137 | [3] 0.092 | duvelisib 0.009 | tozasertib 0.01 | [4] 0.132 | doramapimod -0.047 | ispinesib -0.028

H4C1 (UniProt P62805)
inactive: [1] -0.173 | crizotinib -0.251 | [2] -0.287 | [3] 0.435 | duvelisib -0.177 | gandotinib 0.041 | tozasertib 0.189 | [4] 0.015 | doramapimod 0.227 | ispinesib -0.192

GTPBP6 (UniProt O43824)
inactive: [1] -0.002 | crizotinib 0.012 | [2] 0.197 | [3] -0.066 | gandotinib 0.003 | [4] -0.006 | doramapimod 0.06 | ispinesib 0.076

HARS2 (UniProt P49590)
inactive: [1] 0.006 | crizotinib 0.083 | [2] -0.01 | [3] 0.036 | duvelisib 0.007 | gandotinib -0.02 | tozasertib -0.014 | [4] -0.011 | doramapimod -0.064 | ispinesib -0.016

HAGH (UniProt Q16775)
inactive: [1] 0.07 | crizotinib -0.008 | [2] 0.035 | [3] 0.005 | duvelisib 0.052 | gandotinib -0.019 | tozasertib -0.046 | [4] 0.019 | doramapimod -0.028 | ispinesib 0.004

HBG2 (UniProt P69892)
inactive: [1] -0.023 | crizotinib 0.097 | [2] 0.128 | [3] -0.164 | duvelisib 0.025 | gandotinib 0.089 | tozasertib 0.043 | [4] -0.024 | doramapimod 0.003 | ispinesib 0.124

HDDC3 (UniProt Q8N4P3)
inactive: [1] 0.036 | crizotinib -0.012 | [2] 0.053 | [3] -0.042 | duvelisib 0.135 | gandotinib 0.035 | tozasertib -0.001 | [4] -0.06 | doramapimod 0.009 | ispinesib 0.006

GTPBP2 (UniProt Q9BX10)
inactive: [1] -0.036 | crizotinib -0.075 | [2] 0 | [3] 0.05 | duvelisib -0.011 | gandotinib -0.086 | tozasertib -0.041 | [4] 0.029 | doramapimod 0.078 | ispinesib -0.203

HDAC4 (UniProt P56524)
inactive: [1] -0.025 | crizotinib -0.061 | [2] 0.005 | [3] 0.298 | gandotinib -0.298 | tozasertib -0.027 | doramapimod 0.029 | ispinesib 0.196

2 neighbouring entries already listed:
HAGH (UniProt Q16775)
inactive: [1] 0.07 | crizotinib -0.008 | [2] 0.035 | [3] 0.005 | duvelisib 0.052 | gandotinib -0.019 | tozasertib -0.046 | [4] 0.019 | doramapimod -0.028 | ispinesib 0.004

HBG2 (UniProt P69892)
inactive: [1] -0.023 | crizotinib 0.097 | [2] 0.128 | [3] -0.164 | duvelisib 0.025 | gandotinib 0.089 | tozasertib 0.043 | [4] -0.024 | doramapimod 0.003 | ispinesib 0.124

The listing continues:

HDAC3 isoform 2 (UniProt O15379)
inactive: [1] 0.022 | crizotinib 0.107 | [2] 0.085 | [3] 0.143 | duvelisib 0.049 | gandotinib -0.081 | tozasertib 0.016 | [4] -0.044 | doramapimod -0.098 | ispinesib 0.085

GTF3A (UniProt Q92664)
inactive: [1] -0.002 | crizotinib -0.145 | [2] 0.015 | [3] 0.078 | gandotinib 0.023 | [4] 0.023 | doramapimod -0.001

GTPBP1 (UniProt O00178)
inactive: [1] -0.015 | crizotinib -0.001 | [2] 0.043 | [3] 0.022 | duvelisib -0.013 | gandotinib 0 | tozasertib -0.007 | [4] 0.014 | doramapimod 0.024 | ispinesib -0.017

HCFC1 isoform 4 (UniProt P51610)
inactive: [1] 0.009 | crizotinib 0.005 | [2] 0.018 | [3] -0.012 | duvelisib 0.023 | gandotinib -0.01 | tozasertib 0.012 | [4] 0.019 | doramapimod -0.041 | ispinesib 0.096

GSPT2 (UniProt Q8IYD1)
inactive: [1] 0.06 | crizotinib 0.006 | [2] 0.046 | [3] 0.09 | duvelisib 0.017 | gandotinib 0.306 | [4] -0.048 | doramapimod -0.078 | ispinesib 0.012
